# Test results from PMC10103708.
# Sequences of proteins named here, by UniProt entry; tags and fusion partners are left off.
# UniProt Q9NYB9: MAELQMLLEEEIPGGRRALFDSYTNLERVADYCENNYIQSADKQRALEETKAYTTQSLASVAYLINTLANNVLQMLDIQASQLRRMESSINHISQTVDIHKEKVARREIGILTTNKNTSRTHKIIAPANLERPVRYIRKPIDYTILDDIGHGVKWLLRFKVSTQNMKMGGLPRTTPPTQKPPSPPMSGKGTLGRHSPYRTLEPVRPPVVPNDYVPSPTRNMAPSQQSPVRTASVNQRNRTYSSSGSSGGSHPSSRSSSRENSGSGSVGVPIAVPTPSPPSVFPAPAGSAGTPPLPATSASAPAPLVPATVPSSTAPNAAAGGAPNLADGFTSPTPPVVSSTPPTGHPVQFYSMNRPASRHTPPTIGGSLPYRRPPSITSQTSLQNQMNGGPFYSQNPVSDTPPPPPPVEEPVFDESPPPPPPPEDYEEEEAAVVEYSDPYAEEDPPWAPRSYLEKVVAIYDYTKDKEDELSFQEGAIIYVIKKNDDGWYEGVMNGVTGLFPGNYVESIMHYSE
# UniProt Q9Y6W5: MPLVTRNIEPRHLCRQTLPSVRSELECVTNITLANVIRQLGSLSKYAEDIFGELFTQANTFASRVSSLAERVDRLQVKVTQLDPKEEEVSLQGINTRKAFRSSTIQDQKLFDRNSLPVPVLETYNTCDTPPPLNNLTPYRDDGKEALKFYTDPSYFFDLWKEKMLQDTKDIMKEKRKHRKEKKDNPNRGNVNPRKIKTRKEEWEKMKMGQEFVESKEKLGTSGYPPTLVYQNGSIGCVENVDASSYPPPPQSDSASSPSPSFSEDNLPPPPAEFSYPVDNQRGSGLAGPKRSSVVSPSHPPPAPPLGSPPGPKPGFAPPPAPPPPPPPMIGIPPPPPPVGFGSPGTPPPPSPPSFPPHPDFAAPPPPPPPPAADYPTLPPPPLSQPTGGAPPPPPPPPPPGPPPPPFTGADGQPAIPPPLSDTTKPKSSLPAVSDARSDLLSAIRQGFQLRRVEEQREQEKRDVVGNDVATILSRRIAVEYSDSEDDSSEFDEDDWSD
# No constants are given. Whether binding was seen depends on the method and setting. In cells and extracts the contact can be indirect. Some results given as binding are weak or reduced against the parent protein; the word gives no strength.
# Target: Abl-interactor 2 (ABI2), HA-tagged (UniProt Q9NYB9)
# Assay: co-IP; HA-ABI2 and GFP-WAVE2 co-transfected; cells cultured in normoxia or hypoxia (1% O2); legend: 293T, 4 h, IP with anti-HA beads, blot for GFP; text: DU145, 16 h, IP by the GFP tag, blot for HA; IP lysis buffer 20 mM Tris HCl pH 8, 137 mM NaCl, 10% glycerol, 1% Nonidet P-40, 2 mM EDTA; overnight at 4°C
substance,measurement,value
"WAVE2 (WASp-family verprolin homologous protein 2), GFP-tagged (from UniProt Q9Y6W5 1-498)",binding,binds
